Values are relative to the signal before dosing, not to a vehicle control; the signal also falls without drug.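 Fibroblast labels name human fibroblasts: mostly primary ones from tissues such as uterus (C12385, HUF), lung (H6013), bone (Hs27A), adrenal (HADF) and skin (WS1), plus mammary HMF and breast cancer-associated Hs343T. The cancer cells are basal-like or mesenchymal-like triple-negative breast cancer lines. The paper calls a changed response a hit when it shifts by more than 3x the replicate standard deviation. The tissue of the other fibroblasts is not given here.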
Tested on: HCC1143
Test: relative JC-1 red fluorescence (viability) vs pre-drug, coculture with fibroblast (fraction); higher = more viable cancer cells
Method: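 JC-1 labelled TNBC cells cocultured 1:1 (1,500 cells each) with CellTrace Violet stained primary or stromal fibroblasts in 384-well plates in FluoroBrite medium, treated with one of 42 anticancer drugs at 0.1, 1, 10 or 100 uM. JC-1 red fluorescence (mitochondrial integrity in cancer cells only) was read by plate reader every 8 h for 72 h. Values are normalised to each well's pre-drug value. The stock of one drug was tenfold lower, so its dose labels may be too high.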

Nc1ncn([C@@H]2O[C@H](CO)[C@@H](O)[C@H]2O)c(=O)n1 [Azacitidine]
relative JC-1 red fluorescence
Details | 8 h | 16 h | 24 h | 32 h | 40 h | 48 h | 56 h | 64 h | 72 h
0.1 µM, coculture fibroblast: C12385 | 0.81837 | 0.767 | 0.739 | 0.697 | 0.634 | 0.626 | 0.603 | 0.597 | 0.597
0.1 µM, coculture fibroblast: H6013 | 0.801 | 0.764 | 0.73 | 0.725 | 0.685 | 0.688 | 0.665 | 0.647 | 0.592
0.1 µM, coculture fibroblast: H6019 | 0.816 | 0.74 | 0.686 | 0.6238 | 0.57278 | 0.557 | 0.498 | 0.449 | 0.418
0.1 µM, coculture fibroblast: H6076 | 0.8231 | 0.806 | 0.788 | 0.786 | 0.734 | 0.738 | 0.722 | 0.708 | 0.741
0.1 µM, coculture fibroblast: H6231 | 0.816 | 0.787 | 0.72 | 0.669 | 0.626 | 0.603 | 0.568 | 0.538 | 0.524
0.1 µM, coculture fibroblast: HADF | 0.776 | 0.732 | 0.701 | 0.697 | 0.629 | 0.627 | 0.603 | 0.592 | 0.56
0.1 µM, coculture fibroblast: HCFa | 0.7914 | 0.734 | 0.69435 | 0.6781 | 0.6054 | 0.59502 | 0.551 | 0.519 | 0.5
0.1 µM, coculture fibroblast: HCPF | 0.828 | 0.825 | 0.787 | 0.734 | 0.709 | 0.695 | 0.677 | 0.648 | 0.645
0.1 µM, coculture fibroblast: HHSteC | 0.884 | 0.84 | 0.805 | 0.777 | 0.721 | 0.708 | 0.673 | 0.657 | 0.604
0.1 µM, coculture fibroblast: HMF | 0.8 | 0.817 | 0.743 | 0.6569 | 0.6422 | 0.617 | 0.578 | 0.557 | 0.531
0.1 µM, coculture fibroblast: HPFa | 0.8818 | 0.81 | 0.794 | 0.7 | 0.658 | 0.633 | 0.584 | 0.55 | 0.519
0.1 µM, coculture fibroblast: HUF | 0.868 | 0.797 | 0.744 | 0.676 | 0.631 | 0.61 | 0.56 | 0.534 | 0.511
0.1 µM, coculture fibroblast: Hs5 | 0.8615 | 0.867 | 0.837 | 0.823 | 0.745 | 0.71987 | 0.699 | 0.679 | 0.686
0.1 µM, coculture fibroblast: Hs27A | 0.76 | 0.7428 | 0.7075 | 0.7274 | 0.632 | 0.6427 | 0.6119 | 0.602 | 0.564
0.1 µM, coculture fibroblast: Hs343T | 0.8186 | 0.836 | 0.781 | 0.7032 | 0.683 | 0.641 | 0.6032 | 0.579 | 0.559
0.1 µM, coculture fibroblast: WS1 | 0.814 | 0.7284 | 0.685 | 0.6046 | 0.548 | 0.526 | 0.49 | 0.471 | 0.456
1 µM, coculture fibroblast: C12385 | 0.8501 | 0.753 | 0.696 | 0.623 | 0.553 | 0.507 | 0.462 | 0.424 | 0.4
1 µM, coculture fibroblast: H6013 | 0.721 | 0.646 | 0.601 | 0.58 | 0.511 | 0.494 | 0.467 | 0.449 | 0.427
1 µM, coculture fibroblast: H6019 | 0.801 | 0.747 | 0.696 | 0.639 | 0.588 | 0.57 | 0.522 | 0.484 | 0.44
1 µM, coculture fibroblast: H6076 | 0.791 | 0.7406 | 0.708 | 0.7 | 0.628 | 0.612 | 0.588 | 0.573 | 0.577
1 µM, coculture fibroblast: H6231 | 0.808 | 0.813 | 0.725 | 0.591 | 0.6 | 0.553 | 0.51 | 0.462 | 0.427
1 µM, coculture fibroblast: HADF | 0.701 | 0.608 | 0.565 | 0.577 | 0.47 | 0.442 | 0.407 | 0.384 | 0.38
1 µM, coculture fibroblast: HCFa | 0.76 | 0.68 | 0.639 | 0.624 | 0.546 | 0.516 | 0.473 | 0.443 | 0.416
1 µM, coculture fibroblast: HCPF | 0.8351 | 0.792 | 0.765 | 0.712 | 0.696 | 0.671 | 0.641 | 0.617 | 0.615
1 µM, coculture fibroblast: HHSteC | 0.817 | 0.749 | 0.723 | 0.693 | 0.641 | 0.616 | 0.573 | 0.541 | 0.499
1 µM, coculture fibroblast: HMF | 0.814 | 0.79 | 0.765 | 0.769 | 0.709 | 0.693 | 0.665 | 0.641 | 0.647
1 µM, coculture fibroblast: HPFa | 0.894 | 0.809 | 0.76 | 0.664 | 0.613 | 0.579 | 0.516 | 0.477 | 0.439
1 µM, coculture fibroblast: HUF | 0.852 | 0.776 | 0.729 | 0.6468 | 0.597 | 0.5689 | 0.5171 | 0.488 | 0.463
1 µM, coculture fibroblast: Hs5 | 0.8366 | 0.789 | 0.7515 | 0.7397 | 0.664 | 0.646 | 0.6189 | 0.59275 | 0.5913
1 µM, coculture fibroblast: Hs27A | 0.705 | 0.604 | 0.561 | 0.573 | 0.457 | 0.44 | 0.399 | 0.376 | 0.359
1 µM, coculture fibroblast: Hs343T | 0.823 | 0.787 | 0.74 | 0.702 | 0.655 | 0.629 | 0.594 | 0.585 | 0.567
1 µM, coculture fibroblast: WS1 | 0.8221 | 0.781 | 0.73 | 0.682 | 0.626 | 0.591 | 0.55 | 0.519 | 0.494
10 µM, coculture fibroblast: C12385 | 0.834 | 0.7809 | 0.738 | 0.687 | 0.63 | 0.596 | 0.564 | 0.529 | 0.52
10 µM, coculture fibroblast: H6013 | 0.697 | 0.628 | 0.579 | 0.57 | 0.517 | 0.508 | 0.491 | 0.483 | 0.457
10 µM, coculture fibroblast: H6019 | 0.817 | 0.746 | 0.715 | 0.675 | 0.642 | 0.626 | 0.581 | 0.551 | 0.525
10 µM, coculture fibroblast: H6076 | 0.774 | 0.734 | 0.691 | 0.659 | 0.604 | 0.585 | 0.567 | 0.549 | 0.559
10 µM, coculture fibroblast: H6231 | 0.821 | 0.812 | 0.7452 | 0.622 | 0.632 | 0.596 | 0.552 | 0.516 | 0.48
10 µM, coculture fibroblast: HADF | 0.719 | 0.668 | 0.64 | 0.649 | 0.548 | 0.519 | 0.5 | 0.4766 | 0.4894
10 µM, coculture fibroblast: HCFa | 0.767 | 0.6953 | 0.657 | 0.658 | 0.58 | 0.56 | 0.532 | 0.504 | 0.473
10 µM, coculture fibroblast: HCPF | 0.806 | 0.846 | 0.794 | 0.656 | 0.6995 | 0.6448 | 0.6013 | 0.5538 | 0.531
10 µM, coculture fibroblast: HHSteC | 0.82809 | 0.77 | 0.7422 | 0.712 | 0.6433 | 0.6231 | 0.587 | 0.56 | 0.519
10 µM, coculture fibroblast: HMF | 0.788 | 0.7788 | 0.728 | 0.689 | 0.646 | 0.618 | 0.593 | 0.56509 | 0.541
10 µM, coculture fibroblast: HPFa | 0.86578 | 0.786 | 0.76967 | 0.6783 | 0.626 | 0.595 | 0.543 | 0.512 | 0.489
10 µM, coculture fibroblast: HUF | 0.884 | 0.805 | 0.75683 | 0.69515 | 0.64 | 0.603 | 0.5542 | 0.518 | 0.488
10 µM, coculture fibroblast: Hs5 | 0.842 | 0.904 | 0.84 | 0.789 | 0.735 | 0.694 | 0.652 | 0.62 | 0.603
10 µM, coculture fibroblast: Hs27A | 0.682 | 0.622 | 0.587 | 0.619 | 0.501 | 0.491 | 0.458 | 0.445 | 0.44
10 µM, coculture fibroblast: Hs343T | 0.8209 | 0.871 | 0.798 | 0.692 | 0.69 | 0.639 | 0.591 | 0.559 | 0.517
10 µM, coculture fibroblast: WS1 | 0.855 | 0.768 | 0.711 | 0.632 | 0.567 | 0.521 | 0.472 | 0.437 | 0.407
100 µM, coculture fibroblast: C12385 | 0.832 | 0.76 | 0.728 | 0.696 | 0.665 | 0.652 | 0.629 | 0.602 | 0.583
100 µM, coculture fibroblast: H6013 | 0.663 | 0.56 | 0.505 | 0.473 | 0.436 | 0.437 | 0.418 | 0.41 | 0.349
100 µM, coculture fibroblast: H6019 | 0.743 | 0.6271 | 0.546 | 0.485 | 0.452 | 0.456 | 0.446 | 0.453 | 0.455
100 µM, coculture fibroblast: H6076 | 0.776 | 0.745 | 0.6633 | 0.617 | 0.549 | 0.533 | 0.511 | 0.492 | 0.519
100 µM, coculture fibroblast: H6231 | 0.807 | 0.78345 | 0.7043 | 0.61 | 0.599 | 0.575 | 0.537 | 0.506 | 0.492
100 µM, coculture fibroblast: HADF | 0.735 | 0.666 | 0.63 | 0.631 | 0.542 | 0.518 | 0.495 | 0.477 | 0.475
100 µM, coculture fibroblast: HCFa | 0.7407 | 0.676 | 0.625 | 0.596 | 0.538 | 0.518 | 0.483 | 0.465 | 0.434
100 µM, coculture fibroblast: HCPF | 0.8054 | 0.7883 | 0.7507 | 0.683 | 0.68 | 0.654 | 0.626 | 0.599 | 0.598
100 µM, coculture fibroblast: HHSteC | 0.772 | 0.72 | 0.695 | 0.676 | 0.634 | 0.622 | 0.591 | 0.578 | 0.518
100 µM, coculture fibroblast: HMF | 0.7787 | 0.794 | 0.737 | 0.663 | 0.651 | 0.623 | 0.595 | 0.565 | 0.545
100 µM, coculture fibroblast: HPFa | 0.9 | 0.8004 | 0.77414 | 0.701 | 0.669 | 0.66 | 0.617 | 0.594 | 0.573
100 µM, coculture fibroblast: HUF | 0.87 | 0.776 | 0.735 | 0.658 | 0.612 | 0.583 | 0.544 | 0.517 | 0.501
100 µM, coculture fibroblast: Hs5 | 0.807 | 0.82 | 0.757 | 0.707 | 0.639 | 0.605 | 0.572 | 0.5437 | 0.5345
100 µM, coculture fibroblast: Hs27A | 0.6968 | 0.6001 | 0.5997 | 0.626 | 0.538 | 0.545 | 0.5265 | 0.51557 | 0.497
100 µM, coculture fibroblast: Hs343T | 0.773 | 0.786 | 0.742 | 0.693 | 0.679 | 0.659 | 0.628 | 0.611 | 0.598
100 µM, coculture fibroblast: WS1 | 0.8 | 0.714 | 0.666 | 0.602 | 0.566 | 0.537 | 0.511 | 0.483 | 0.472
